The text below walks through data of publication doi:10.1101/2023.08.11.552966.

Sequences of proteins named here, by UniProt entry; tags and fusion partners are left off.
UniProt Q06609, whole entry S97A: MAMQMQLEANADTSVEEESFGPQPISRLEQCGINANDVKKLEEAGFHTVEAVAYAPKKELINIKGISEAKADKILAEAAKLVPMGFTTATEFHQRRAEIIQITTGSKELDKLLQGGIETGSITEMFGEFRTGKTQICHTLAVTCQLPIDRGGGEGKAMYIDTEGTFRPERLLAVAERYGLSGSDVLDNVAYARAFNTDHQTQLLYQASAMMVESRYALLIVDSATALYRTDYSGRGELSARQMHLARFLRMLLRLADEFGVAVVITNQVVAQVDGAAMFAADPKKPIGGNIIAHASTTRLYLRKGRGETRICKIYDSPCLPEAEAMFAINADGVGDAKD
UniProt Q06609, whole entry S97D: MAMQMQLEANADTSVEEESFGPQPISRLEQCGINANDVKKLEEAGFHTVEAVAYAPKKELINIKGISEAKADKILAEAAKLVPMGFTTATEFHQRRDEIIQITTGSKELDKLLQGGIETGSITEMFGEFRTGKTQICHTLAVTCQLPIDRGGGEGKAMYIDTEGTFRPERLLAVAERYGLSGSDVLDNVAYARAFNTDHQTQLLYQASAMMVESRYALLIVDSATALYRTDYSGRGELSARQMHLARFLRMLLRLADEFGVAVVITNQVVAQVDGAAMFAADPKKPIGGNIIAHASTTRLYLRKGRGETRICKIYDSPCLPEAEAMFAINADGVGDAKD

The target of data set [1] is RAD51 S97A (non phosphorylable) (Homo sapiens) (UniProt Q06609). In words: BLI. To be noted: 2 mM ATP.
Data set [2] addresses RAD51 S97D (phosphomimetic) (Homo sapiens) (UniProt Q06609). Put plainly: BLI. Conditions: 2 mM ATP.

Construct, isoform or probe ends are uncertain for at least one entry.

As to “GCCAUCCGCAAAAAUGACCUCUUAUCAAAAGGA [33m RNA]”, the values for the Kd in data set [1] and in data set [2] were 320 nM and 1730 nM, respectively.
Taken in the same sequence, the figures for “TCCTTTTGATAAGAGGTCATTTTTGCGGATGGC [33m DNA]” were 340 nM and 3630 nM.
